The source of these data is publication PMC12313710, “Targeting the BAG2/CHIP axis promotes gastric cancer apoptosis by blocking apoptosome assembly” (Frontiers in Immunology, 2025).

Protein sequences, listed by entry. Tags and fused reporters are not part of them.
UniProt O14727: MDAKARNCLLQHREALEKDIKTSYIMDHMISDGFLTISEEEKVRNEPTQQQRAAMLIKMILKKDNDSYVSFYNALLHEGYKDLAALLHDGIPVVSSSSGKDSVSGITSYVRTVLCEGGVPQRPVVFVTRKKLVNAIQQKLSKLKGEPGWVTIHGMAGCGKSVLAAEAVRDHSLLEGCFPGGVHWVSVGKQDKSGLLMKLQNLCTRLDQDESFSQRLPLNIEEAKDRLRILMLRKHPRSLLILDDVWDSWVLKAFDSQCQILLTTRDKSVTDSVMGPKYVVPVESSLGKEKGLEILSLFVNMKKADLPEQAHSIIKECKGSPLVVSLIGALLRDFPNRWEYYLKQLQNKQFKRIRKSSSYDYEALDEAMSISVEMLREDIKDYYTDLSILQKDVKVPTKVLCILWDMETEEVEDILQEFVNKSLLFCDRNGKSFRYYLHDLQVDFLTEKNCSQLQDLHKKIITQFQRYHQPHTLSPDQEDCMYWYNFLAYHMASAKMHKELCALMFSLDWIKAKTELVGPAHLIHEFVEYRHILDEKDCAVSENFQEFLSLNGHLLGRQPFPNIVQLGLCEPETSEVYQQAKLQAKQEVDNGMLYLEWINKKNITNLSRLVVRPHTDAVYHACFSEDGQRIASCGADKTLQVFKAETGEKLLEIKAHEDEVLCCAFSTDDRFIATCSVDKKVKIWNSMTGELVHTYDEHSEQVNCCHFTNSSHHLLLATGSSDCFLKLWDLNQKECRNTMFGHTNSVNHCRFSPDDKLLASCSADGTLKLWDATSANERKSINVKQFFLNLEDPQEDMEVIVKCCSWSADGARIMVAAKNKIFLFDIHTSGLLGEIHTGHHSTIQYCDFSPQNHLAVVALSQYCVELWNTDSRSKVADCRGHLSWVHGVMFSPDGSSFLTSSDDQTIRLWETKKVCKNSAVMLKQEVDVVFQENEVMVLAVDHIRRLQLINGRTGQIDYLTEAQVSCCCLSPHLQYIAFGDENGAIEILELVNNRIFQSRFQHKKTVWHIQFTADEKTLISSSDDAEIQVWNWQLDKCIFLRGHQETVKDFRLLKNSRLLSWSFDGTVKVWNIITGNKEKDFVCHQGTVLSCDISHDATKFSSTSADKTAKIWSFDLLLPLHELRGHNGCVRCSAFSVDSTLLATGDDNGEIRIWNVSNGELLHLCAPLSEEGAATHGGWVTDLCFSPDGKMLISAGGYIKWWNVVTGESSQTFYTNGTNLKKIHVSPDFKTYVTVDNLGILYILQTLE
UniProt P99999: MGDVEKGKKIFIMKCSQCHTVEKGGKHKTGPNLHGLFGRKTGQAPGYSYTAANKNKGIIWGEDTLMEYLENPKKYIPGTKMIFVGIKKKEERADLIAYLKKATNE

The target in the test is Flag-tagged apoptotic protease-activating factor 1 (Apaf1) (UniProt O14727). Kind of test: co-IP; Flag- and HA-tagged proteins co-expressed in HEK-293T; lysis in 50 mM Tris-HCl pH 7.4, 150 mM NaCl, 1 mM EDTA, 0.2% Triton X-100; anti-Flag M2 agarose, 2 h, 4°C; blots for HA and FLAG.

No constants are given. Whether binding was seen depends on the method and setting. Binding seen in cells or lysates may run through a third protein. Some entries that bind do so weakly or less than the wild type.

Turning to “HA-tagged cytochrome C (Cytc) (from UniProt P99999 1-105)”, the binding result was “binds”.
